Source: publication doi:10.1101/2021.10.25.465752
Residue numbers refer to the chain shown, from its start. Names and notes keep the numbering of the source. Results are given in words; binding and its absence hold for the method and conditions named. Binding seen in cells or lysates may run through a third protein. Some results given as binding are weak or reduced against the parent protein; the word gives no strength.

Biological target: T1, STN1-YCE (Arabidopsis thaliana) (UniProt Q9LMK5)
T1 sequence: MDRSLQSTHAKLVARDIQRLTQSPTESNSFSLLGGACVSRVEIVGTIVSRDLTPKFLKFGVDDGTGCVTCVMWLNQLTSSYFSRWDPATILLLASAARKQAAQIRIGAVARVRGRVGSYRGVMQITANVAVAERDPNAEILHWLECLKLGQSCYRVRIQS
Assay: split reporter

B1: G100E-YNE (protein, UniProt Q6NME7 1-127)
chain: MAKSQIEPGVPITLQELYPSSLFYKEGVSLRVTAMLRGYSVETAIGVIEDGGRSLKINTQNIRDVSFRVGSIYQFIGELHIEQPNNEAILQARTGRNVDEIDMNLYRKTIELLRQFLKEEDNSNMVE
- binding: binds

B2: TEN1-YNE (protein, UniProt Q6NME7 1-127)
chain: B1 chain with E100G
- binding: binds
